For three molecules, binding results are on record in PMC5437018.

The chains behind the UniProt entries cited, without tags or fusion partners.
UniProt Q6PR54: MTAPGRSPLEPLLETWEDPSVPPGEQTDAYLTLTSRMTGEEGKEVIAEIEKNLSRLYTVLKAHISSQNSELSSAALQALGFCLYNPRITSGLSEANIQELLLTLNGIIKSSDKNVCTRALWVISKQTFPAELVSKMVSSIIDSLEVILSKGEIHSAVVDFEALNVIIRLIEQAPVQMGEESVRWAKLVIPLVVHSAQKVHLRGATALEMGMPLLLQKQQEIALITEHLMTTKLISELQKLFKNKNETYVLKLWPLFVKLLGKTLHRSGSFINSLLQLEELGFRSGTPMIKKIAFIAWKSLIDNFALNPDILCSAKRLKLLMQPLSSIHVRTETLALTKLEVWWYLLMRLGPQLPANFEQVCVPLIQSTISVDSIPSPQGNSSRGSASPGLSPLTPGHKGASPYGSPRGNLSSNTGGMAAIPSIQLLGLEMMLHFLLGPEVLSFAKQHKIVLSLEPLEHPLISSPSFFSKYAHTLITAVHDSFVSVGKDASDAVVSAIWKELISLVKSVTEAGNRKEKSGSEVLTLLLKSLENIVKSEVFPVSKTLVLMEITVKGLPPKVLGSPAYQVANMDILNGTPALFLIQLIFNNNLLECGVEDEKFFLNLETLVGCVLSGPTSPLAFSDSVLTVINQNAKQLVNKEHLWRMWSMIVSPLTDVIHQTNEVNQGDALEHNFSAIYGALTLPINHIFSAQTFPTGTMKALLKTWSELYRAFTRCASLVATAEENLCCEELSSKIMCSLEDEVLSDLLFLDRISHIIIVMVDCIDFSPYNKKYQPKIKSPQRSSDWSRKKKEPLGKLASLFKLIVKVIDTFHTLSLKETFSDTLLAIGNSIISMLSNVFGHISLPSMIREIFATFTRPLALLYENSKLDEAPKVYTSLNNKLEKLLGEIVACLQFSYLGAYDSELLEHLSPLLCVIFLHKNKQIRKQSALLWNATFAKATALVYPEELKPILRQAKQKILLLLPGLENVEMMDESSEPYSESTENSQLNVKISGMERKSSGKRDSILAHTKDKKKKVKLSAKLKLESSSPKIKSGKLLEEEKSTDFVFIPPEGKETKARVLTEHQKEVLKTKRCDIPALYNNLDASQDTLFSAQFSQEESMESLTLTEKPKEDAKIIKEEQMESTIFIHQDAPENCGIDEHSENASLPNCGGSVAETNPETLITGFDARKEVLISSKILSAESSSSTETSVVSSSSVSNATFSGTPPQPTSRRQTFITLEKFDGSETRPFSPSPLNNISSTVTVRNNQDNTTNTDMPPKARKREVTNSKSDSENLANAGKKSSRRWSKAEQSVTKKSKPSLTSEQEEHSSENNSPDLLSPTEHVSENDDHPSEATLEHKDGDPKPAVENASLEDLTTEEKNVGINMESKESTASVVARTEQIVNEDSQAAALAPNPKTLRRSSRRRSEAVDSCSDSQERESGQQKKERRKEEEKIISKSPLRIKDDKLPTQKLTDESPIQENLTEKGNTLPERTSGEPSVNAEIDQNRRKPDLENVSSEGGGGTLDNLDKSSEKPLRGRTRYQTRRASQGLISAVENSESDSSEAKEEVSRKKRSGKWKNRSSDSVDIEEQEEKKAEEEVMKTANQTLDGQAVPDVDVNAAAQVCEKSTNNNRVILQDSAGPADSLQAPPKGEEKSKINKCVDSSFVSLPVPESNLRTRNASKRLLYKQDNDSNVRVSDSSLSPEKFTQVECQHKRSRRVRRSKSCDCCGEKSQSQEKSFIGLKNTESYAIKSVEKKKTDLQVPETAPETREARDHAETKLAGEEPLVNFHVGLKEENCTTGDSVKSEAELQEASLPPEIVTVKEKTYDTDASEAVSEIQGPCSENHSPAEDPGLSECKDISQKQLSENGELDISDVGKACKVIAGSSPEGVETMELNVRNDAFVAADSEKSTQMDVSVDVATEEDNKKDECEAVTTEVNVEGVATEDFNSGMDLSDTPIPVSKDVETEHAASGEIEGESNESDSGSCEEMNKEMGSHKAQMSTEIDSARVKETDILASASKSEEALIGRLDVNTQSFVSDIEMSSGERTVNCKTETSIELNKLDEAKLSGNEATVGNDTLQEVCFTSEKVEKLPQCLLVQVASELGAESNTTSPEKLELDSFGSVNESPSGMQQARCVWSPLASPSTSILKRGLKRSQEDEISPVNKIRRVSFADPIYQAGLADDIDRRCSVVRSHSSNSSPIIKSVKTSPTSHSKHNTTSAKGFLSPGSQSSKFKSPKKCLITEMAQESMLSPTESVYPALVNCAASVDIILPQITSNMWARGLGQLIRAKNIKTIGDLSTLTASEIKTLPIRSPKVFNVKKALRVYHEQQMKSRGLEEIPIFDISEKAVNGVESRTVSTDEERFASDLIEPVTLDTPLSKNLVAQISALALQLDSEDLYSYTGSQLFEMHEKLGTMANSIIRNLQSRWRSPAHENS

These are yes or no findings as the source states them, for the method shown. Binding seen in cells or lysates may run through a third protein. A yes stands for co-enrichment or nearness to the bait. Other partners may have been found.

B1: Lamin B1 (protein, UniProt P14733 1-588)
chain: MATATPVQQQRAGSRASAPATPLSPTRLSRLQEKEELRELNDRLAVYIDKVRSLETENSALQLQVTEREEVRGRELTGLKALYETELADARRALDDTARERAKLQIELGKFKAEHDQLLLNYAKKESDLSGAQIKLREYEAALNSKDAALATALGDKKSLEGDLEDLKDQIAQLEASLSAAKKQLADETLLKVDLENRCQSLTEDLEFRKNMYEEEINETRRKHETRLVEVDSGRQIEYEYKLAQALHEMREQHDAQVRLYKEELEQTYHAKLENARLSSEMNTSTVNSAREELMESRMRIESLSSQLSNLQKESRACLERIQELEDMLAKERDNSRRMLSDREREMAEIRDQMQQQLSDYEQLLDVKLALDMEISAYRKLLEGEEERLKLSPSPSSRVTVSRASSSRSVRTTRGKRKRVDVEESEASSSVSISHSASATGNVCIEEIDVDGKFIRLKNTSEQDQPMGGWEMIRKIGDTSVSYKYTSRYVLKAGQTVTVWAANAGVTASPPTDLIWKNQNSWGTGEDVKVILKNSQGEEVAQRSTVFKTTIPEEEEEEEEEPIGVAVEEERFHQQGAPRASNKSCAIM
B2: Proteasome (Prosome, macropain) 26S subunit, non-ATPase, 13 (protein, UniProt Q9WVJ2 1-376)
chain: MKDVPAFLQQSQSSGPGQAAVWHRLEELYTKKLWHQLTLEVLDFVQDPCFAQGDGLIKLYENFISEFEHRVNPLSLVEIILHVVRQMTDPNVALTFLEKTREKVKSSDEAVILCKTAIGALKLNIGDLQATKETIEDVEEMLNNLPGVTSVHSRFYDLSSKYYQTIGNHASYYKDALRFLGCVDIKDLPVSEQQERAFTLGLAGLLGEGVFNFGELLMHPVLESLRDTDRQWLIDTLYAFNSGAVDRFQTLKCAWGQQPDLAANEAQLLRKIQLLCLMEMTFTRPANHRQLTFEEIAKSAKITVNKVELLVMKALSVGLVRGSIDEVDKRVHMTWVQPRVLDLQQIKGMKDRLELWCTDVKSMEMLVEHQAQDILT
B3: Lamin B2 (protein, UniProt P21619 1-596)
chain: MASLPPHAGPATPLSPTRLSRLQEKEELRELNDRLAHYIDRVRALELENDRLLLRISEKEEVTTREVSGIKTLYESELADARRVLDETARERARLQIEIGKVQAELEEARKSAKKREGELTVAQGRVKDLESLFHRSEAELATALSDKQGLETEVAELRAQLAKAEDGHAVAKKQLEKETLMRVDLENRCQSLQEELAFSKSVFEEEVRETRRRHERRLVEVDSSRQQEYDFKMAQALEDLRSQHDEQVRLYRVELEQTYQAKLDNAKLLSDQNDKAAHAAREELKEARMRVESLSYQLLGLQKQASAAENHIHELEEALAGERDKFRKMLDAKEQEMTEVRDAMQQQLAEYQELLDIKLALDMEISAYRKLLEGEEERLKLSPSPSSRITISRATSSSSSSSGVGMSVGQGRGKRRRLETEDTSGSPSRASRVSSGSRLAQQTVATGVVNIDEVDPEGRFVRLKNSSDKDQSLGNWRIKRQVLEGEDIAYKFTPKYVLRAGQTVTVWAAGAGATHSPPSTLVWKSQTNWGPGESFRTALVSADGEEVAVKAAKHSSVQGRENGEEEEEEEAEFGEEDLFHQQGDPRTTSRGCRLM

The target in the experiment is Rif1^FLAG-HA2 (endogenous mouse Rif1 carrying a knock-in FLAG-HA2 tag) (mouse) (UniProt Q6PR54). Description: affinity purification with mass spectrometry; anti-Flag M2 affinity gel IP of Rif1^FH from nuclear extracts of Rif1^FH/+ mouse ESCs (Benzonase, 0.2% Triton X-100), overnight 4 °C, washes with 150 mM NaCl and 0.1% Triton X-100, Flag-peptide elution; label-free quantitation against Rif1^+/+ ESCs.
Take B1: the binding entry was “binds”.

As for B2, the binding entry is given as “binds”.

Regarding B3, the binding result is “binds”.
